Source: the supplement of paper PMC5770031
Where “and” joins values, the source holds several entries; their conditions need not be identical. Equal values may be shown once. This is one part of the list. Repeats in this data set agree poorly, so a single value says little.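 ATM8/balancer (normal ATM) heterozygous flies were crossed on treated food; parents laid eggs 5–6 days, offspring developed ~12 days, so parents and larvae ingested compound. Readout: fraction of emerged adults homozygous for ATM8 versus 2% DMSO controls. Compounds were neutral at 10–20% homozygotes, harmful below 10%, helpful above 20%.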

The compounds below were run on Drosophila melanogaster ATM8 (temperature-sensitive ATM allele) (assay: fraction of eclosed F1 progeny that are homozygous ATM8 (rescue of developmental lethality); higher = more rescue of ATM8 developmental lethality; extreme values may be limits of the assay). Conditions: compound concentration applied to food 0.2 mM; 21 °C.

| SMILES | fraction of eclosed F1 progeny that are homozygous ATM8 |
| --- | --- |
| Nc1ccc2cc3ccc(N)cc3nc2c1 | 0.08 |
| C[C@H](CCC(=O)O)[C@H]1CC[C@H]2[C@@H]3CC[C@@H]4C[C@H](O)CC[C@]4(C)[C@H]3C[C@H](O)[C@]12C | 0.114 |
| CCC1(c2ccc(N)cc2)CCC(=O)NC1=O (stereo not drawn) | 0 |
| COc1ccc2cc(C(C)C(=O)O)ccc2c1 (stereo not drawn) | 0.0536 |
| Cc1cc(CC(=O)O)n(C)c1C(=O)c1ccc(Cl)cc1 | 0.132 |
| COC(=O)CC[C@@H](C)[C@H]1CC[C@H]2[C@@H]3[C@H](O)C[C@@H]4C[C@H](O)CC[C@]4(C)[C@H]3C[C@H](O)[C@]12C | 0.0811 |
| COc1c(O)cccc1O | 0.233 |
| CC(=O)Nc1ncc([N+](=O)[O-])s1 | 0 |
| CC12CCC(CC1)C(C)(C)O2 | 0.17 |
| CC(=O)O[C@@H]1CC2C(C)(C)C(=O)C3OC3[C@]2(C)C2CC[C@@]3(C)[C@H](c4ccoc4)OC(=O)C4OC43[C@@]21C (stereo partly drawn) | 0.111 |
| CCN(C)C(=O)Oc1cccc([C@H](C)N(C)C)c1 | 0.0541 |
| Nc1ccc(S(=O)(=O)Nc2ccnn2-c2ccccc2)cc1 | 0.152 |
| CO/N=C(\C(=O)N[C@@H]1C(=O)N2C(C(=O)O)=C(COC(N)=O)CS[C@H]12)c1ccco1 | 0.15 |
| O=C(NCC(O)CO)c1c(I)c(C(=O)NCC(O)CO)c(I)c(N(CCO)C(=O)CO)c1I (stereo not drawn) | 0.0492 |
| FC(F)(Cl)C(F)(F)Cl | 0.444 |
| CC1Cc2ccccc2N1NC(=O)c1ccc(Cl)c(S(N)(=O)=O)c1 (stereo not drawn) | 0.1 |
| CN(C)C(=O)Oc1cc(OC(=O)N(C)C)cc(C(O)CNC(C)(C)C)c1 (stereo not drawn) | 0.119 |
| NCCc1ccc(O)cc1 | 0.342 |
| CCC(C(=O)O)c1ccccc1 (stereo not drawn) | 0.159 |
| CC(=O)OC1C[C@]2(C)CC[C@H]1C2(C)C (stereo partly drawn) | 0.204 |
| O=c1cc[nH]c(=S)[nH]1 | 0.182 |
| CC[C@@H](c1cccc(O)c1)[C@@H](C)CN(C)C | 0.129 |
| CCn1cc(C(=O)O)c(=O)c2cc3c(cc21)OCO3 | 0.114 |
| CC1(C)CC[C@]2(C(=O)O)CC[C@]3(C)C(=CC[C@@H]4[C@@]5(C)CC[C@H](O)[C@@](C)(CO)[C@@H]5CC[C@]43C)[C@@H]2C1 | 0.143 |

| SMILES | fraction of eclosed F1 progeny that are homozygous ATM8 |
| --- | --- |
| CNC(C)C1CCC(N)C(OC2C(N)CC(N)C(OC3OCC(C)(O)C(NC)C3O)C2O)O1 (stereo not drawn) | 0.0244 |
| C[C@]12CC[C@H](O)C[C@@H]1CC[C@@H]1[C@@H]2CC[C@]2(C)C(=O)CC[C@@H]12 | 0.039 |
| O=c1cc(-c2cccc(O)c2)oc2cc(O)ccc12 | 0.35 |
| CC(C)/C(O)=C1/C(=O)O[C@@H](c2ccoc2)[C@]2(C)C(O)[C@@H](O)[C@@]34OC5(C)OC67CC(C)(C(O)[C@]6(O)[C@@H](O)[C@]3(O5)C12)[C@H](CC(=O)O)[C@]74C (stereo partly drawn) | 0.11 |
| CC[C@H]1OC(=O)[C@H](C)[C@@H](O[C@H]2C[C@@](C)(OC)[C@@H](O)[C@H](C)O2)[C@H](C)[C@@H](O[C@@H]2O[C@H](C)C[C@H](N(C)C)[C@H]2O)[C@](C)(O)C[C@@H](C)[C@@H]2N[C@@H](COCCOC)O[C@H]([C@H]2C)[C@]1(C)O | 0.318 |
| O=C1CC2(CCCC2)CC(=O)N1CCCCN1CCN(c2ncccn2)CC1 | 0.167 |
| CCn1nc(C(=O)O)c(=O)c2cc3c(cc21)OCO3 | 0.107 |
| O=C(O)C(S)C(S)C(=O)O (stereo not drawn) | 0.0714 |
| Cc1cc(/C=C/c2ccc3cc(N(C)C)ccc3[n+]2C)c(C)n1-c1ccccc1 | 0.2 |
| O=c1c(-c2ccc(O)cc2)coc2c([C@@H]3O[C@H](CO)[C@@H](O)[C@H](O)[C@H]3O)c(O)ccc12 | 0.0341 |
| C[N+]1([O-])[C@@H]2CC[C@H]1C[C@@H](OC(=O)C(CO)c1ccccc1)C2 (stereo partly drawn) | 0.125 |
| CC(C)(Oc1ccc(C(=O)c2ccc(Cl)cc2)cc1)C(=O)O | 0.2 |
| CCCCNc1ccc(C(=O)OCCOCCOCCOCCOCCOCCOCCOCCOCCOC)cc1 | 0.156 |
| CC(C)=CCC/C(C)=C/CC/C(C)=C/CC/C(C)=C/CC/C(C)=C/CC/C(C)=C/CC/C(C)=C/CC/C(C)=C/CC/C(C)=C/CO | 0.213 |
| O=S1(=O)OC(c2ccc(O)cc2)(c2ccc(O)cc2)c2ccccc21 | 0.156 |
| O=C(O[C@@H]1Cc2c(O)cc(O)cc2O[C@@H]1c1cc(O)c(=O)c2c(O)c(O)cc([C@H]3Oc4cc(O)cc(O)c4C[C@H]3O)c2c1)c1cc(O)c(O)c(O)c1 | 0.286 |
| COC(=O)CC[C@@H](C)[C@H]1CC[C@H]2[C@@H]3CC[C@@H]4C[C@H](O)CC[C@]4(C)[C@H]3C[C@H](O)[C@]12C | 0.0811 |
| CC(=O)OCC(=O)[C@@]1(O)CC[C@H]2[C@@H]3CC[C@@H]4C[C@H](O)CC[C@]4(C)[C@H]3C(=O)C[C@@]21C | 0.257 |
| [N-]=[N+]=CC(=O)OC[C@H](N)C(=O)O | 0.245 |
| Oc1ccc(OCc2ccccc2)cc1 | 0.0933 |
| CC1(C)C(=O)C=C[C@@]2(C)C1CC(=O)[C@@]1(C)C3=CC(=O)O[C@@H](c4ccoc4)[C@]3(C)CCC12 (stereo partly drawn) | 0.103 |
| CC(C)C1=CC2=CC[C@@H]3[C@](C)(CCC[C@@]3(C)C(=O)O)[C@H]2CC1 | 0.0449 |
| N=C1NC(=O)N2CC12 (stereo not drawn) | 0.0577 |
| C[C@H]1C[C@H]2[C@@H]3CCC4=CC(=O)C=C[C@]4(C)[C@@]3(F)[C@@H](O)C[C@]2(C)[C@@]1(O)C(=O)CO | 0.0488 |

| SMILES | fraction of eclosed F1 progeny that are homozygous ATM8 |
| --- | --- |
| CN(C)CCOc1ccc(/C(=C(/CCCl)c2ccccc2)c2ccccc2)cc1 | 0.228 |
| CCN1CCN(C(=O)N[C@@H](C(=O)N[C@@H]2C(=O)N3C(C(=O)O)=C(CSc4nnnn4C)CS[C@H]23)c2ccc(O)cc2)C(=O)C1=O | 0.0938 |
| Cc1ccc(Cl)c(Nc2ccccc2C(=O)O)c1Cl | 0.167 |
| O=C(NCCO[N+](=O)[O-])c1cccnc1 | 0.0952 |
| CC1=Nc2ccc(Cl)cc2S(=O)(=O)N1 | 0.0909 |
| C1CCN2C[C@@H]3C[C@@H](CN4CCCC[C@@H]34)[C@H]2C1 | 0.111 |
| CCCCCCCC/C=C/CCCCCCCCOP(=O)([O-])OCC[N+](C)(C)C | 0.0638 |
| CC(=O)OCC(OC(C)=O)C(OC(C)=O)C(OC(C)=O)C(OC(C)=O)C(COC(C)=O)OC(C)=O (stereo not drawn) | 0.364 |
| Cc1nnc(NS(=O)(=O)c2ccc(N)cc2)s1 | 0.147 |
| O=C1C2CC3CC1CC(O)(C3)C2 | 0.093 |
| COc1cc(NS(C)(=O)=O)ccc1Nc1c2ccccc2nc2ccccc12 | 0.0702 |
| C[C@@H]1C[C@H]2[C@@H]3CCC4=CC(=O)C=C[C@]4(C)[C@@]3(F)[C@@H](O)C[C@]2(C)[C@@]1(O)C(=O)CO | 0 |
| O=C(O)CCCc1ccccc1 | 0.0656 and 0.146 |
| Cc1cnc(NC(=O)C2=C(O)c3ccccc3S(=O)(=O)N2C)s1 | 0.143 |
| COc1ccc2c3c([nH]c2c1)C(C)=NCC3 | 0.0667 |
| CC1(C)O[C@@H]2C[C@H]3[C@@H]4CCC5=CC(=O)C=C[C@]5(C)[C@@]4(F)[C@@H](O)C[C@]3(C)[C@]2(C(=O)CO)O1 | 0.111 |
| NC1=NCCN1CC(=O)O | 0 |
| CN1CCN(CCCN2c3ccccc3Sc3ccc(Cl)cc32)CC1 | 0.25 |
| CC(=O)Oc1cc(OC(C)=O)c2c(c1)O[C@H](c1ccc(OC(C)=O)c(OC(C)=O)c1)[C@H](OC(C)=O)C2 | 0.116 |
| COc1ccc(O)c(C(C)(C)C)c1.COc1ccc(O)cc1C(C)(C)C | 0.0946 |
| CC(=O)O[C@H]1CC[C@@]2(C)[C@@H](CC[C@@H]3[C@@H]2CC(=O)[C@]2(C)[C@@H]4[C@H](C[C@@H]32)O[C@]2(CC[C@@H](C)CO2)[C@H]4C)C1 | 0.311 |
| COC(=O)/C=C/C(C)=C\C=C\C(C)=C\C=C\C=C(C)\C=C\C=C(C)\C=C\C(=O)O | 0.113 |
| C1CNCCN1 | 0.148 |
| COc1c2occc2c(OC)c2c(=O)cc(C)oc12 | 0.0556 |

| SMILES | fraction of eclosed F1 progeny that are homozygous ATM8 |
| --- | --- |
| CC[C@H](C)C(=O)O[C@H]1CCC=C2C=C[C@H](C)[C@H](CC[C@@H]3C[C@@H](O)CC(=O)O3)[C@H]21 | 0.128 |
| Nc1cc(C(Cl)=C(Cl)Cl)c(S(N)(=O)=O)cc1S(N)(=O)=O | 0.385 |
| c1cncc(C2=NCCC2)c1 | 0.08 |
| C[C@H](CCC(=O)O)[C@H]1CC[C@H]2[C@@H]3[C@H](O)C[C@@H]4C[C@H](O)CC[C@]4(C)[C@H]3CC[C@]12C | 0.0476 |
| NCC(O)CC(=O)O (stereo not drawn) | 0.0263 |
| O=C(/C=C/c1ccc(O)c(O)c1)OCCc1ccccc1 | 0.125 |
| NNc1nncc2ccccc12 | 0 |
| CC(=O)OCC(CCn1cnc2cnc(N)nc21)COC(C)=O | 0.333 |
| CN(C)[C@@H]1C(O)=C(C(=O)NCN2CCCC2)C(=O)[C@@]2(O)C(O)=C3C(=O)c4c(O)cccc4[C@@](C)(O)[C@H]3C[C@@H]12 | 0.128 |
| O=S(=O)([O-])NC1CCCCC1.[Na+] | 0.0893 |
| Cc1c(N(C)CS(=O)(=O)O)c(=O)n(-c2ccccc2)n1C | 0.0507 |
| COc1cc2c3cc1Oc1c(OC)c(OC)cc4c1[C@@H](Cc1ccc(O)c(c1)Oc1ccc(cc1)C[C@@H]3N(C)CC2)N(C)CC4 | 0.179 |
| CC(NCCC(c1ccccc1)c1ccccc1)c1ccccc1 (stereo not drawn) | 0.0638 |
| CC(=O)Oc1ccc2c(C)cc(=O)oc2c1 | 0.0698 |
| CCc1cn([C@H]2C[C@H](O)[C@@H](CO)O2)c(=O)[nH]c1=O | 0.0331 |
| O=S(=O)(O)NC1CCCCC1 | 0.141 |
| C[C@]12CC[C@@H]3c4ccc(OC(=O)N(CCCl)CCCl)cc4CC[C@H]3[C@@H]1CC[C@@H]2O | 0.125 |
| C[C@@H]1O[C@@H](O[C@H]2[C@H](Oc3cc(O)c4c(=O)cc(-c5ccc(O)cc5)oc4c3)O[C@H](CO)[C@@H](O)[C@@H]2O)[C@H](O)[C@H](O)[C@H]1O | 0.18 |
| CCN(CC)CCc1nc(-c2ccccc2)no1 | 0.182 |
| Cc1nccc2c1[nH]c1ccccc12 | 0.115 |
| C[C@H]1C[C@@H]2[C@H]([C@@H](O)C[C@@]3(C)[C@H]2CC[C@]3(O)C(=O)CO)[C@@]2(C)C=CC(=O)C=C12 | 0.275 |

Part of the list above, in CSV form.
SMILES,fraction of eclosed F1 progeny that are homozygous ATM8
NCC(O)CC(=O)O (stereo not drawn),0.0263
O=C(/C=C/c1ccc(O)c(O)c1)OCCc1ccccc1,0.125
NNc1nncc2ccccc12,0
